According to the supplement of paper PMC10849652:
The other results are listed elsewhere or left out.

The chains behind the UniProt entries cited, without tags or fusion partners. Where a name states a change or a piece, a line headed by the entry shows the natural chain unless it says otherwise.
UniProt P35221: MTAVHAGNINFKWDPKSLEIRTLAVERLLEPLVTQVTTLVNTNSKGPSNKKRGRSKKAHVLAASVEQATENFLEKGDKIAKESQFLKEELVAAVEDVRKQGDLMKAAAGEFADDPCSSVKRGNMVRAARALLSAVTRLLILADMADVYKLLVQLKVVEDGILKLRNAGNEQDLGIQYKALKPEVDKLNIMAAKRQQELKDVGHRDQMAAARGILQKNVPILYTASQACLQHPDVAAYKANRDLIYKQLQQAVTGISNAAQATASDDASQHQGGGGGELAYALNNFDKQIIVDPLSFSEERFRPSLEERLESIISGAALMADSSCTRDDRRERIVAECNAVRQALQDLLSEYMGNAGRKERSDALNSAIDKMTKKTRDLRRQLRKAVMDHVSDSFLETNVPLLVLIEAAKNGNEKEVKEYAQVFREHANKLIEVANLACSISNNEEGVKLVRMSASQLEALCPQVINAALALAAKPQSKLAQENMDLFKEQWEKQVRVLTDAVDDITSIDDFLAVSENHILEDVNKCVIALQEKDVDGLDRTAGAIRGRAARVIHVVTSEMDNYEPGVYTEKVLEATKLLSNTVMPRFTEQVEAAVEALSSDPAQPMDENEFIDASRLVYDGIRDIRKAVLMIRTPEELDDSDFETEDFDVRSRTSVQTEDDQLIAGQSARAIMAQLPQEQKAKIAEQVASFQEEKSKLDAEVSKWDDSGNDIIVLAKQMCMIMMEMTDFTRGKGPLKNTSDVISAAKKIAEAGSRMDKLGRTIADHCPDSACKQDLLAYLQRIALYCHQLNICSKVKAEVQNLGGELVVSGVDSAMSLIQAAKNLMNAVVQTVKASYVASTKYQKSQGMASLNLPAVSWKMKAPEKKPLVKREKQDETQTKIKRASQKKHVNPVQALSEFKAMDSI
UniProt Q1MSJ5: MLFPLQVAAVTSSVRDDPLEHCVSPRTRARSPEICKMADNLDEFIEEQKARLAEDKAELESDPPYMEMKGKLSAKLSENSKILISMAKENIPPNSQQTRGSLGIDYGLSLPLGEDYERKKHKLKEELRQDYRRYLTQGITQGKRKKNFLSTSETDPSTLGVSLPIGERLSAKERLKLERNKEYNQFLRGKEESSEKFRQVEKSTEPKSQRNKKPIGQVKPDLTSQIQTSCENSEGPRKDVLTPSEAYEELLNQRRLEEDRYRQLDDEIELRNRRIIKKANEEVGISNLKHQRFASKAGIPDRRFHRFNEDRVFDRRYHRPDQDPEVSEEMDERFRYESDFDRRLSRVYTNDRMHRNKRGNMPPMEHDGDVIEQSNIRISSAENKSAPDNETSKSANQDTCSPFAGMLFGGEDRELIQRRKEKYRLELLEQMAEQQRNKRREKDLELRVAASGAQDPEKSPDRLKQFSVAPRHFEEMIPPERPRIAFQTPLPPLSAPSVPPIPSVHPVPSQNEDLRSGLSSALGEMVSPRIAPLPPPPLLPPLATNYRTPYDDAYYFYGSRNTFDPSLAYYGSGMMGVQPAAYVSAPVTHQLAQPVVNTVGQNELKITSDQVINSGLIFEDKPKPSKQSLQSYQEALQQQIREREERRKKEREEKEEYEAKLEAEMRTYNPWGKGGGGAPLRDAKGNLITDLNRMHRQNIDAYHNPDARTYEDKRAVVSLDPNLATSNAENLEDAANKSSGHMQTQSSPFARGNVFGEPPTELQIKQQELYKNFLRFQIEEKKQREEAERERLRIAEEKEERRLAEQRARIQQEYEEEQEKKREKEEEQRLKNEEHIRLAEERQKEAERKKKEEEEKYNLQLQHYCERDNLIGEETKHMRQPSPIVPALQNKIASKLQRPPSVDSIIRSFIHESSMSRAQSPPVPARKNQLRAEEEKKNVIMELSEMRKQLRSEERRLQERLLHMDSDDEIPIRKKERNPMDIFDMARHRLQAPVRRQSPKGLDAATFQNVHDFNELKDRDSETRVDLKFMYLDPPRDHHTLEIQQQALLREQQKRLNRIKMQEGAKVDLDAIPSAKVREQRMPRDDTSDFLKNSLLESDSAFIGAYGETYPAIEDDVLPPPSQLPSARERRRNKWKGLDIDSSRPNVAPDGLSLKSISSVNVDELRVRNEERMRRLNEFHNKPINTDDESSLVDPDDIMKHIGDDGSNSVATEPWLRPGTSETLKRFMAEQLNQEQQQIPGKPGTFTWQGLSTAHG
UniProt Q05048: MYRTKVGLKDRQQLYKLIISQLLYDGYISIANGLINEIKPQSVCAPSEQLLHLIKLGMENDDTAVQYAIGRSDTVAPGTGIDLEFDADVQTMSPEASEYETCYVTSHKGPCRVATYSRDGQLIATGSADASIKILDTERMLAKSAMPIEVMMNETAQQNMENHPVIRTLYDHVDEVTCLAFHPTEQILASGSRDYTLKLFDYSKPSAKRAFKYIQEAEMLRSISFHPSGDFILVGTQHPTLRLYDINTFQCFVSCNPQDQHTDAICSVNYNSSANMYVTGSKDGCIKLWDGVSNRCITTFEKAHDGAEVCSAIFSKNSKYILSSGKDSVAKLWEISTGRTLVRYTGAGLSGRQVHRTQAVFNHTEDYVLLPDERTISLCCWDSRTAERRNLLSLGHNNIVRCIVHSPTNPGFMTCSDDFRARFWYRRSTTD
UniProt Q96C86: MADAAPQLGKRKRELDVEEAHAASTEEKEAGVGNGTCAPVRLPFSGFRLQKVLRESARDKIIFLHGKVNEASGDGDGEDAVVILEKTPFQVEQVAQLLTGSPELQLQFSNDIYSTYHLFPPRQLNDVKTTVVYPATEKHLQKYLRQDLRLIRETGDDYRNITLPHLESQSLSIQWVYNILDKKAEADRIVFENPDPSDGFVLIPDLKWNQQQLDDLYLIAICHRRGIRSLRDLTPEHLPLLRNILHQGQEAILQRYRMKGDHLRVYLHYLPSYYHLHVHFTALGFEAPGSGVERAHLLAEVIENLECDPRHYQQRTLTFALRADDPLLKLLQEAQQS
UniProt Q9NV06: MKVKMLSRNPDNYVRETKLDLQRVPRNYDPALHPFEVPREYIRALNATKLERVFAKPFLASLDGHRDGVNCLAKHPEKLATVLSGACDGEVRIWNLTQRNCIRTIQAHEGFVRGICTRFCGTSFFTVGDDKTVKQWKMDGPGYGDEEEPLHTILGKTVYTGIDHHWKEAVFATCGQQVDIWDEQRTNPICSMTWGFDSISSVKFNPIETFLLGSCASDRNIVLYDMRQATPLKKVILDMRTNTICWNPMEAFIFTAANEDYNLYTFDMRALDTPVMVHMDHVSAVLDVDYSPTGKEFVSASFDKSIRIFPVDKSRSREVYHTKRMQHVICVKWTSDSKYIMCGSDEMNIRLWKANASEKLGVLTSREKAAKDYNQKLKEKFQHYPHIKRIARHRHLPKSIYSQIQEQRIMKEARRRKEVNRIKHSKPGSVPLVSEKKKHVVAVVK
UniProt P61803: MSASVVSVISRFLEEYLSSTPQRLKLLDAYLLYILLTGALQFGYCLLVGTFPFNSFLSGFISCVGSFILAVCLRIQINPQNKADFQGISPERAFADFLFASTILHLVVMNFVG
UniProt P07711: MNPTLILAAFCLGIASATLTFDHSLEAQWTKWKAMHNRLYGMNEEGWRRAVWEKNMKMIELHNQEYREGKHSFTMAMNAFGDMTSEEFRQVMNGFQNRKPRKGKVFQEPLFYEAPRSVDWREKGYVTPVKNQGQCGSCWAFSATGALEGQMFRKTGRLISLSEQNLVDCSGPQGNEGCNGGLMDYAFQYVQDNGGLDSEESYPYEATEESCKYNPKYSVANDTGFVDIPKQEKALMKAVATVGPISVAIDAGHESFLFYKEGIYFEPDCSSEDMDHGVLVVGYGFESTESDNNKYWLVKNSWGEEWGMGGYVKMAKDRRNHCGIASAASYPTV
UniProt P53355: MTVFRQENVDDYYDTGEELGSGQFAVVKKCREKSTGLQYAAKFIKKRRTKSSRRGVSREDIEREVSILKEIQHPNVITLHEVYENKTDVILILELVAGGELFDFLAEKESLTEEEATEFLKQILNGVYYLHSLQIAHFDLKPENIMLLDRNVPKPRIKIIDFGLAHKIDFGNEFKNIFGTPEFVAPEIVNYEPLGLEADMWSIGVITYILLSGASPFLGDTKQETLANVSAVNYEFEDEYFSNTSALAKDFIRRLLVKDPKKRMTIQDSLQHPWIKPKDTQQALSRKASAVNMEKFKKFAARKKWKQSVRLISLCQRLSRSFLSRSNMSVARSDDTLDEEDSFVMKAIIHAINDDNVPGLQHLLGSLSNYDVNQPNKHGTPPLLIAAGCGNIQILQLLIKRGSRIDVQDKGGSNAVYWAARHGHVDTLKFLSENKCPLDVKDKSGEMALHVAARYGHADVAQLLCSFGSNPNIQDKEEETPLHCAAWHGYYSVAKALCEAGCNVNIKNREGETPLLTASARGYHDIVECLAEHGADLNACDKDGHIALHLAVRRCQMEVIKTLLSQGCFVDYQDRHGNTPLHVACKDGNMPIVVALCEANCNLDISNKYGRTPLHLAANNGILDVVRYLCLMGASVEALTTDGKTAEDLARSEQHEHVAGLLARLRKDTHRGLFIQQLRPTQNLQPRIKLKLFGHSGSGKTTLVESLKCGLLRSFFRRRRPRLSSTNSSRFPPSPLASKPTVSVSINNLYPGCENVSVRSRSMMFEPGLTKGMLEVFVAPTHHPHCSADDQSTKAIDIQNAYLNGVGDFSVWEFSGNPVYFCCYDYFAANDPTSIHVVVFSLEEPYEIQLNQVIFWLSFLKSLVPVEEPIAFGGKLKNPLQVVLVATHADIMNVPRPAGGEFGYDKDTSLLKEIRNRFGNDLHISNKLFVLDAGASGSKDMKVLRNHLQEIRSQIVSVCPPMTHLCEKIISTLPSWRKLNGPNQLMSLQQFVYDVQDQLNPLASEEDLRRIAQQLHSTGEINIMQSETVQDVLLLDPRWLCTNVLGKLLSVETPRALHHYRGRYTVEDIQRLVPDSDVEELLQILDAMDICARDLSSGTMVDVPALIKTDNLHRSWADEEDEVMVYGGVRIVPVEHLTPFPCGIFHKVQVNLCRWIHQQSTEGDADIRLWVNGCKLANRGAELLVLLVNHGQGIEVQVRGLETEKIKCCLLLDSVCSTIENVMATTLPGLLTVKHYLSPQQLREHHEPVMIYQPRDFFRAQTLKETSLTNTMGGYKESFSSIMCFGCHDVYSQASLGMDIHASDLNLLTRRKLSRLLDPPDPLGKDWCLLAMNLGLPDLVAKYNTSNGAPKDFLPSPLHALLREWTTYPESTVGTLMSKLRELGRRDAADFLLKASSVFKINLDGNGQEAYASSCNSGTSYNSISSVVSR
UniProt P49447: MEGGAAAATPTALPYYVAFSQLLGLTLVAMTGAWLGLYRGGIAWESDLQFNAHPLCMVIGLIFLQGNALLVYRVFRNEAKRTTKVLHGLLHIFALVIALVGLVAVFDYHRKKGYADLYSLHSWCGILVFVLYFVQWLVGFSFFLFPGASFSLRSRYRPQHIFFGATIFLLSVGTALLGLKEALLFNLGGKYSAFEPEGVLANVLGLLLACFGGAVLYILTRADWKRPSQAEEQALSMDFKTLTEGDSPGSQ
UniProt P07108: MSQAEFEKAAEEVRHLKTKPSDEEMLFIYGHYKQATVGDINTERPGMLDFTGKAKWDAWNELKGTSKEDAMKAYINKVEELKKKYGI
UniProt O60888: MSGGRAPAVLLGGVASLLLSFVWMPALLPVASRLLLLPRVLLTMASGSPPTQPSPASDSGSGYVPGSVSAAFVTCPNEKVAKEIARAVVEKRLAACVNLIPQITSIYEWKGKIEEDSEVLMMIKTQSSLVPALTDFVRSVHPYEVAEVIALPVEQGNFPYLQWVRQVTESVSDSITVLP
UniProt P13498: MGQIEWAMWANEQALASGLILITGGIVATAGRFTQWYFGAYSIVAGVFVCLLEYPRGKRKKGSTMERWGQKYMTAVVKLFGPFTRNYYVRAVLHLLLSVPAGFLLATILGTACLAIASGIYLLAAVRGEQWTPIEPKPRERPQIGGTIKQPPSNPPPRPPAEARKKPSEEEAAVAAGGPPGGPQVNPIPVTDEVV
UniProt Q9H0L4: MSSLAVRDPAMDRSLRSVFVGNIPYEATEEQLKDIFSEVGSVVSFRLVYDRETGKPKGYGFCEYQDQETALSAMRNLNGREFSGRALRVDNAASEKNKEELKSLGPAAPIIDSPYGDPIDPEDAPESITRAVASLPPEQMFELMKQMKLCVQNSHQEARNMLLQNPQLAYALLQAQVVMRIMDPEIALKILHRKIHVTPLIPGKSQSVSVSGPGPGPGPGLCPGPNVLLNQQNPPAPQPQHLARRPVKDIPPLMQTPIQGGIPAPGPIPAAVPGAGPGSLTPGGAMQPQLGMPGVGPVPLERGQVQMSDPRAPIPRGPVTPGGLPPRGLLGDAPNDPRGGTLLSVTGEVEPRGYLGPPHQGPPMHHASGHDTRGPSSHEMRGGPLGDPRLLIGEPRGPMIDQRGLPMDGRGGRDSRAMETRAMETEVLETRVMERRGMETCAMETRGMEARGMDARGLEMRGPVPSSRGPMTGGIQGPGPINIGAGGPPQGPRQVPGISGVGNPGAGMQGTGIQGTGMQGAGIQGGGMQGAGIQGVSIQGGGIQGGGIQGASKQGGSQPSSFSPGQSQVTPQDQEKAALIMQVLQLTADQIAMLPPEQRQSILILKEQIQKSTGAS

Key:
Assay in all cases: log2 fold change, soluble protein after heating vs DMSO (PISA); higher = thermal stabilisation; K562 cells, 10 uM, 30 min; active = over 0.2 and 3.5 SD of the protein, either way, in both replicates (recomputed)
[1] = compound: C1=CC=C(C=C1)[C@H](COC2=CC3=C(C=C2)NC(=O)N3)NC(=O)C4=CC=CN(C4=O)CC5=CC(=C(C=C5)F)F
Outline: (§1)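 K562 cells (2×10^6 cells/mL) were treated with 10 μM compound for 30 min, and aliquots were heated for 3 min over 48°C-58°C. Pooled aliquots were extracted in PBS with 0.5% NP-40 at 4°C, and the supernatant after 21,000xg for 90 min was measured by TMTpro 16plex LC-MS/MS with channel sums equalised. Reported thermal stability, relative to control samples and from duplicates, is a log2 fold change.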

[2] = compound: CC1=C(SC2=C1C(=N[C@H](C3=NN=C(N32)C)CC(=O)N)C4=CC=C(C=C4)Cl)C
Outline: as §1

[3] = compound: CC1=C2C(=CC=C1)N=C(N(C2=O)C3=CC=CC=C3C)CN4C=NC5=C(N=CN=C54)N
Outline: as §1

[4] = compound: Cc1sc2c(c1C)C(c1ccc(Cl)cc1)=N[C@@H](CC(=O)OC(C)(C)C)c1nnc(C)n1-2
Outline: as §1

[5] = compound: c1ccc([C@@H]2C[C@H]2NC2CCNCC2)cc1
Outline: as §1

Measured: log2 fold change

CTNNA1 isoform 2 (UniProt P35221)
inactive: [1] 0.016 | [2] 0.027 | [3] -0.008 | [4] -0.001 | [5] 0.003

CSPP1 (UniProt Q1MSJ5)
inactive: [1] 0.015 | [2] -0.009 | [3] 0.09 | [4] 0.107 | [5] 0.049

CTNND1 (UniProt O60716)
inactive: [1] 0.074 | [2] -0.147 | [3] -0.15 | [4] 0.27 | [5] -0.066

CSTF1 (UniProt Q05048)
inactive: [1] 0.003 | [2] 0.096 | [3] 0.004 | [4] -0.007 | [5] -0.047

DCAF6 isoform 3 (UniProt Q58WW2)
inactive: [1] 0.04 | [2] -0.017 | [3] 0.003 | [4] 0.032 | [5] 0.027

2 successive entries out of the list so far, for reference:
CTNND1 (UniProt O60716)
inactive: [1] 0.074 | [2] -0.147 | [3] -0.15 | [4] 0.27 | [5] -0.066

CSTF1 (UniProt Q05048)
inactive: [1] 0.003 | [2] 0.096 | [3] 0.004 | [4] -0.007 | [5] -0.047

Next results.

CTU1 (UniProt Q7Z7A3)
inactive: [1] -0.061 | [2] 0.025 | [3] 0.052 | [4] -0.006 | [5] -0.051

CUSTOS (UniProt Q96C57)
inactive: [1] 0.03 | [2] 0.004 | [3] 0.049 | [4] -0.001 | [5] 0.005

CSRP1 (UniProt P21291)
inactive: [1] 0.013 | [2] 0.04 | [3] 0.002 | [4] -0.021 | [5] -0.007

DCPS (UniProt Q96C86)
inactive: [1] 0.009 | [2] 0.032 | [3] -0.02 | [4] 0 | [5] 0.039

DCAKD (UniProt Q8WVC6)
inactive: [1] -0.069 | [2] 0.036 | [3] 0.03 | [4] -0.021 | [5] -0.061

DAB2 (UniProt P98082)
inactive: [1] -0.039 | [2] 0.051 | [3] 0.1 | [4] 0.121 | [5] 0.094

DCAF13 (UniProt Q9NV06)
inactive: [1] 0.105 | [2] -0.221 | [3] -0.152 | [4] 0.128 | [5] 0

CXCL14 (UniProt O95715)
inactive: [1] -0.086

CYHR1 (UniProt E9PJD7)
inactive: [1] -0.017 | [2] 0.105 | [3] 0.141 | [4] -0.054 | [5] 0.024

DAD1 (UniProt P61803)
inactive: [1] 0.088 | [2] -0.244 | [3] -0.321 | [4] 0.093 | [5] 0.094

CTBS (UniProt Q01459)
inactive: [1] 0.082 | [2] -0.002 | [3] 0.014 | [4] -0.019 | [5] -0.006

CTSL (UniProt P07711)
inactive: [1] -0.017 | [2] -0.07 | [3] 0.015 | [4] 0.031 | [5] 0.104

DAPK1 isoform 3 (UniProt P53355)
inactive: [1] -0.003

CYB5R1 (UniProt Q9UHQ9)
inactive: [1] 0.03 | [2] 0.041 | [3] 0.081 | [4] -0.024 | [5] -0.014

CUTC (UniProt Q9NTM9)
inactive: [1] -0.017 | [2] -0.006 | [3] 0.055 | [4] -0.017 | [5] 0.033

CYB561 (UniProt P49447)
inactive: [1] 0.077 | [2] 0.126 | [3] -0.046 | [4] 0.063 | [5] 0.062

DCTPP1 (UniProt Q9H773)
inactive: [1] 0.022 | [2] 0.029 | [3] -0.015 | [4] -0.043 | [5] 0.009

DBI isoform 5 (UniProt P07108)
inactive: [1] 0.011 | [2] 0.107 | [3] 0.02 | [4] -0.042 | [5] -0.013

DCAF4L2 (UniProt Q8NA75)
inactive: [1] -0.065 | [2] 0.004 | [3] 0.027 | [4] 0.042 | [5] 0.076

CUL3 (UniProt Q13618)
inactive: [1] -0.018 | [2] 0.05 | [3] 0.034 | [4] -0.017 | [5] -0.011

CUTA isoform 2 (UniProt O60888)
inactive: [1] 0.099 | [2] 0.116 | [3] -0.289 | [4] -0.123 | [5] 0.015

DCUN1D1 (UniProt Q96GG9)
inactive: [1] -0.011 | [2] 0.064 | [3] 0.073 | [4] -0.033 | [5] 0.003

CTPS2 (UniProt Q9NRF8)
inactive: [1] 0.002 | [2] 0.002 | [3] 0.015 | [4] -0.01 | [5] 0.018

CT45A10 (UniProt P0DMU9)
inactive: [1] 0.075 | [2] -0.271 | [3] -0.299 | [4] 0.087 | [5] -0.132

DBNL isoform 3 (UniProt Q9UJU6)
inactive: [1] -0.096 | [2] 0.002 | [3] 0.045 | [4] 0.029 | [5] 0.01

CWF19L1 (UniProt Q69YN2)
inactive: [1] -0.022 | [2] 0.011 | [3] 0.073 | [4] 0.004 | [5] 0.018

CUL2 isoform 2 (UniProt Q13617)
inactive: [1] -0.006 | [2] 0.035 | [3] 0.051 | [4] -0.016 | [5] -0.033

DCAF10 (UniProt Q5QP82)
inactive: [1] 0.015 | [2] -0.018 | [3] 0.056 | [4] 0.013 | [5] -0.011

CTSB (UniProt P07858)
inactive: [1] -0.015 | [2] -0.024 | [3] 0.019 | [4] -0.024 | [5] -0.035

DAZAP1 (UniProt Q96EP5)
inactive: [1] 0 | [2] 0.029 | [3] -0.009 | [4] 0.033 | [5] 0.059

DBR1 (UniProt Q9UK59)
inactive: [1] 0.023 | [2] 0 | [3] 0 | [4] 0.017 | [5] 0.057

DAAM2 (UniProt Q86T65)
inactive: [1] -0.036

CXorf38 (UniProt Q8TB03)
inactive: [1] -0.017 | [2] 0.073 | [3] 0.114 | [4] -0.004 | [5] -0.013

CXorf56 (UniProt Q9H5V9)
inactive: [1] -0.024 | [2] 0.034 | [3] 0.077 | [4] 0.015 | [5] -0.031

CUX1 isoform 2 (UniProt Q13948)
inactive: [1] -0.067 | [2] 0.013 | [3] 0 | [4] 0 | [5] 0.023

DCAF16 (UniProt Q9NXF7)
inactive: [1] 0.06 | [2] 0.056 | [3] 0.079 | [4] 0.032 | [5] -0.032

CSTB (UniProt P04080)
inactive: [1] 0.045 | [2] 0.124 | [3] 0.069 | [4] -0.107 | [5] 0.033

CYBA (UniProt P13498)
inactive: [1] 0.007 | [2] 0.034 | [3] -0.013 | [4] 0.027 | [5] 0.031

CSTF2T (UniProt Q9H0L4)
inactive: [1] 0.012 | [2] 0.037 | [3] 0.086 | [4] -0.016 | [5] 0

DCP1A (UniProt Q9NPI6)
inactive: [1] -0.053 | [2] 0 | [3] -0.006 | [4] 0.093 | [5] 0.175

DCAF8 (UniProt Q5TAQ9)
inactive: [1] 0.023 | [2] -0.044 | [3] 0.035 | [4] -0.005 | [5] -0.011

CSTF2 (UniProt P33240)
inactive: [1] 0.017 | [2] 0.04 | [3] 0.057 | [4] -0.026 | [5] 0.021

CTBP1 (UniProt Q13363)
inactive: [1] 0.005 | [2] 0.036 | [3] 0.021 | [4] -0.027 | [5] 0.032

CYB5R2 (UniProt Q6BCY4)
inactive: [1] 0.053 | [2] -0.009 | [3] 0.048 | [4] 0.017 | [5] -0.011

DCAF1 (UniProt Q9Y4B6)
inactive: [1] -0.017 | [2] 0.027 | [3] 0.049 | [4] -0.023 | [5] -0.021

DCTN5 (UniProt Q9BTE1)
inactive: [1] -0.002 | [2] 0.022 | [3] 0.095 | [4] -0.018 | [5] 0.053

DARS2 (UniProt Q6PI48)
inactive: [1] 0.007 | [2] -0.015 | [3] -0.036 | [4] 0.031 | [5] 0.036

CTCF (UniProt P49711)
inactive: [1] 0.097 | [2] -0.456 | [3] -0.177 | [4] 0.131 | [5] 0.016

CTTN (UniProt Q14247)
inactive: [1] 0.029 | [2] 0.003 | [3] 0.037 | [4] 0.003 | [5] 0.01

DBT (UniProt P11182)
inactive: [1] -0.003 | [2] -0.004 | [3] 0.012 | [4] 0.062 | [5] 0.007
